Test results published in PMC12022042.
No constants are given. Whether binding was seen depends on the method and setting. In cells and extracts the contact can be indirect. These calls come from enrichment with a bait or labelling near it, and not all partners need be listed. For part of these data: A no says only that the protein was not detected with the bait.

Sequences of proteins named here, by UniProt entry; tags and fusion partners are left off.
UniProt Q96A61: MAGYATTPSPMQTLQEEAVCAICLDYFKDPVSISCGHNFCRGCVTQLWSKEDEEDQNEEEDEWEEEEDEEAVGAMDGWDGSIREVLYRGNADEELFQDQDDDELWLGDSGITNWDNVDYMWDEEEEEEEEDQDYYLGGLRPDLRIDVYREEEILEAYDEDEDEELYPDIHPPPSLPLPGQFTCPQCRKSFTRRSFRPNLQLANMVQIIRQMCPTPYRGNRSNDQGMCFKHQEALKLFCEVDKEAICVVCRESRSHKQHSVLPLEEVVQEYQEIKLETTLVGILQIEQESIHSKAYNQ
UniProt Q9P0J7: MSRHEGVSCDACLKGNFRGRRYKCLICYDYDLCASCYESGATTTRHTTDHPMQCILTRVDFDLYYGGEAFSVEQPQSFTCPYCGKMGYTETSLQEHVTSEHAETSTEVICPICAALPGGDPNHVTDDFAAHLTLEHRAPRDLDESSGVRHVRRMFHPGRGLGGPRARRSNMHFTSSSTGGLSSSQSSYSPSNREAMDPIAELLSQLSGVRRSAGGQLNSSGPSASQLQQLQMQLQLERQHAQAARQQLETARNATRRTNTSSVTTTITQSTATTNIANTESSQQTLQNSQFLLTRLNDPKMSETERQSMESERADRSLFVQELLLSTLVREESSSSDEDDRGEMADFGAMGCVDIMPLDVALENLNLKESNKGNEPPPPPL
UniProt Q5T4S7: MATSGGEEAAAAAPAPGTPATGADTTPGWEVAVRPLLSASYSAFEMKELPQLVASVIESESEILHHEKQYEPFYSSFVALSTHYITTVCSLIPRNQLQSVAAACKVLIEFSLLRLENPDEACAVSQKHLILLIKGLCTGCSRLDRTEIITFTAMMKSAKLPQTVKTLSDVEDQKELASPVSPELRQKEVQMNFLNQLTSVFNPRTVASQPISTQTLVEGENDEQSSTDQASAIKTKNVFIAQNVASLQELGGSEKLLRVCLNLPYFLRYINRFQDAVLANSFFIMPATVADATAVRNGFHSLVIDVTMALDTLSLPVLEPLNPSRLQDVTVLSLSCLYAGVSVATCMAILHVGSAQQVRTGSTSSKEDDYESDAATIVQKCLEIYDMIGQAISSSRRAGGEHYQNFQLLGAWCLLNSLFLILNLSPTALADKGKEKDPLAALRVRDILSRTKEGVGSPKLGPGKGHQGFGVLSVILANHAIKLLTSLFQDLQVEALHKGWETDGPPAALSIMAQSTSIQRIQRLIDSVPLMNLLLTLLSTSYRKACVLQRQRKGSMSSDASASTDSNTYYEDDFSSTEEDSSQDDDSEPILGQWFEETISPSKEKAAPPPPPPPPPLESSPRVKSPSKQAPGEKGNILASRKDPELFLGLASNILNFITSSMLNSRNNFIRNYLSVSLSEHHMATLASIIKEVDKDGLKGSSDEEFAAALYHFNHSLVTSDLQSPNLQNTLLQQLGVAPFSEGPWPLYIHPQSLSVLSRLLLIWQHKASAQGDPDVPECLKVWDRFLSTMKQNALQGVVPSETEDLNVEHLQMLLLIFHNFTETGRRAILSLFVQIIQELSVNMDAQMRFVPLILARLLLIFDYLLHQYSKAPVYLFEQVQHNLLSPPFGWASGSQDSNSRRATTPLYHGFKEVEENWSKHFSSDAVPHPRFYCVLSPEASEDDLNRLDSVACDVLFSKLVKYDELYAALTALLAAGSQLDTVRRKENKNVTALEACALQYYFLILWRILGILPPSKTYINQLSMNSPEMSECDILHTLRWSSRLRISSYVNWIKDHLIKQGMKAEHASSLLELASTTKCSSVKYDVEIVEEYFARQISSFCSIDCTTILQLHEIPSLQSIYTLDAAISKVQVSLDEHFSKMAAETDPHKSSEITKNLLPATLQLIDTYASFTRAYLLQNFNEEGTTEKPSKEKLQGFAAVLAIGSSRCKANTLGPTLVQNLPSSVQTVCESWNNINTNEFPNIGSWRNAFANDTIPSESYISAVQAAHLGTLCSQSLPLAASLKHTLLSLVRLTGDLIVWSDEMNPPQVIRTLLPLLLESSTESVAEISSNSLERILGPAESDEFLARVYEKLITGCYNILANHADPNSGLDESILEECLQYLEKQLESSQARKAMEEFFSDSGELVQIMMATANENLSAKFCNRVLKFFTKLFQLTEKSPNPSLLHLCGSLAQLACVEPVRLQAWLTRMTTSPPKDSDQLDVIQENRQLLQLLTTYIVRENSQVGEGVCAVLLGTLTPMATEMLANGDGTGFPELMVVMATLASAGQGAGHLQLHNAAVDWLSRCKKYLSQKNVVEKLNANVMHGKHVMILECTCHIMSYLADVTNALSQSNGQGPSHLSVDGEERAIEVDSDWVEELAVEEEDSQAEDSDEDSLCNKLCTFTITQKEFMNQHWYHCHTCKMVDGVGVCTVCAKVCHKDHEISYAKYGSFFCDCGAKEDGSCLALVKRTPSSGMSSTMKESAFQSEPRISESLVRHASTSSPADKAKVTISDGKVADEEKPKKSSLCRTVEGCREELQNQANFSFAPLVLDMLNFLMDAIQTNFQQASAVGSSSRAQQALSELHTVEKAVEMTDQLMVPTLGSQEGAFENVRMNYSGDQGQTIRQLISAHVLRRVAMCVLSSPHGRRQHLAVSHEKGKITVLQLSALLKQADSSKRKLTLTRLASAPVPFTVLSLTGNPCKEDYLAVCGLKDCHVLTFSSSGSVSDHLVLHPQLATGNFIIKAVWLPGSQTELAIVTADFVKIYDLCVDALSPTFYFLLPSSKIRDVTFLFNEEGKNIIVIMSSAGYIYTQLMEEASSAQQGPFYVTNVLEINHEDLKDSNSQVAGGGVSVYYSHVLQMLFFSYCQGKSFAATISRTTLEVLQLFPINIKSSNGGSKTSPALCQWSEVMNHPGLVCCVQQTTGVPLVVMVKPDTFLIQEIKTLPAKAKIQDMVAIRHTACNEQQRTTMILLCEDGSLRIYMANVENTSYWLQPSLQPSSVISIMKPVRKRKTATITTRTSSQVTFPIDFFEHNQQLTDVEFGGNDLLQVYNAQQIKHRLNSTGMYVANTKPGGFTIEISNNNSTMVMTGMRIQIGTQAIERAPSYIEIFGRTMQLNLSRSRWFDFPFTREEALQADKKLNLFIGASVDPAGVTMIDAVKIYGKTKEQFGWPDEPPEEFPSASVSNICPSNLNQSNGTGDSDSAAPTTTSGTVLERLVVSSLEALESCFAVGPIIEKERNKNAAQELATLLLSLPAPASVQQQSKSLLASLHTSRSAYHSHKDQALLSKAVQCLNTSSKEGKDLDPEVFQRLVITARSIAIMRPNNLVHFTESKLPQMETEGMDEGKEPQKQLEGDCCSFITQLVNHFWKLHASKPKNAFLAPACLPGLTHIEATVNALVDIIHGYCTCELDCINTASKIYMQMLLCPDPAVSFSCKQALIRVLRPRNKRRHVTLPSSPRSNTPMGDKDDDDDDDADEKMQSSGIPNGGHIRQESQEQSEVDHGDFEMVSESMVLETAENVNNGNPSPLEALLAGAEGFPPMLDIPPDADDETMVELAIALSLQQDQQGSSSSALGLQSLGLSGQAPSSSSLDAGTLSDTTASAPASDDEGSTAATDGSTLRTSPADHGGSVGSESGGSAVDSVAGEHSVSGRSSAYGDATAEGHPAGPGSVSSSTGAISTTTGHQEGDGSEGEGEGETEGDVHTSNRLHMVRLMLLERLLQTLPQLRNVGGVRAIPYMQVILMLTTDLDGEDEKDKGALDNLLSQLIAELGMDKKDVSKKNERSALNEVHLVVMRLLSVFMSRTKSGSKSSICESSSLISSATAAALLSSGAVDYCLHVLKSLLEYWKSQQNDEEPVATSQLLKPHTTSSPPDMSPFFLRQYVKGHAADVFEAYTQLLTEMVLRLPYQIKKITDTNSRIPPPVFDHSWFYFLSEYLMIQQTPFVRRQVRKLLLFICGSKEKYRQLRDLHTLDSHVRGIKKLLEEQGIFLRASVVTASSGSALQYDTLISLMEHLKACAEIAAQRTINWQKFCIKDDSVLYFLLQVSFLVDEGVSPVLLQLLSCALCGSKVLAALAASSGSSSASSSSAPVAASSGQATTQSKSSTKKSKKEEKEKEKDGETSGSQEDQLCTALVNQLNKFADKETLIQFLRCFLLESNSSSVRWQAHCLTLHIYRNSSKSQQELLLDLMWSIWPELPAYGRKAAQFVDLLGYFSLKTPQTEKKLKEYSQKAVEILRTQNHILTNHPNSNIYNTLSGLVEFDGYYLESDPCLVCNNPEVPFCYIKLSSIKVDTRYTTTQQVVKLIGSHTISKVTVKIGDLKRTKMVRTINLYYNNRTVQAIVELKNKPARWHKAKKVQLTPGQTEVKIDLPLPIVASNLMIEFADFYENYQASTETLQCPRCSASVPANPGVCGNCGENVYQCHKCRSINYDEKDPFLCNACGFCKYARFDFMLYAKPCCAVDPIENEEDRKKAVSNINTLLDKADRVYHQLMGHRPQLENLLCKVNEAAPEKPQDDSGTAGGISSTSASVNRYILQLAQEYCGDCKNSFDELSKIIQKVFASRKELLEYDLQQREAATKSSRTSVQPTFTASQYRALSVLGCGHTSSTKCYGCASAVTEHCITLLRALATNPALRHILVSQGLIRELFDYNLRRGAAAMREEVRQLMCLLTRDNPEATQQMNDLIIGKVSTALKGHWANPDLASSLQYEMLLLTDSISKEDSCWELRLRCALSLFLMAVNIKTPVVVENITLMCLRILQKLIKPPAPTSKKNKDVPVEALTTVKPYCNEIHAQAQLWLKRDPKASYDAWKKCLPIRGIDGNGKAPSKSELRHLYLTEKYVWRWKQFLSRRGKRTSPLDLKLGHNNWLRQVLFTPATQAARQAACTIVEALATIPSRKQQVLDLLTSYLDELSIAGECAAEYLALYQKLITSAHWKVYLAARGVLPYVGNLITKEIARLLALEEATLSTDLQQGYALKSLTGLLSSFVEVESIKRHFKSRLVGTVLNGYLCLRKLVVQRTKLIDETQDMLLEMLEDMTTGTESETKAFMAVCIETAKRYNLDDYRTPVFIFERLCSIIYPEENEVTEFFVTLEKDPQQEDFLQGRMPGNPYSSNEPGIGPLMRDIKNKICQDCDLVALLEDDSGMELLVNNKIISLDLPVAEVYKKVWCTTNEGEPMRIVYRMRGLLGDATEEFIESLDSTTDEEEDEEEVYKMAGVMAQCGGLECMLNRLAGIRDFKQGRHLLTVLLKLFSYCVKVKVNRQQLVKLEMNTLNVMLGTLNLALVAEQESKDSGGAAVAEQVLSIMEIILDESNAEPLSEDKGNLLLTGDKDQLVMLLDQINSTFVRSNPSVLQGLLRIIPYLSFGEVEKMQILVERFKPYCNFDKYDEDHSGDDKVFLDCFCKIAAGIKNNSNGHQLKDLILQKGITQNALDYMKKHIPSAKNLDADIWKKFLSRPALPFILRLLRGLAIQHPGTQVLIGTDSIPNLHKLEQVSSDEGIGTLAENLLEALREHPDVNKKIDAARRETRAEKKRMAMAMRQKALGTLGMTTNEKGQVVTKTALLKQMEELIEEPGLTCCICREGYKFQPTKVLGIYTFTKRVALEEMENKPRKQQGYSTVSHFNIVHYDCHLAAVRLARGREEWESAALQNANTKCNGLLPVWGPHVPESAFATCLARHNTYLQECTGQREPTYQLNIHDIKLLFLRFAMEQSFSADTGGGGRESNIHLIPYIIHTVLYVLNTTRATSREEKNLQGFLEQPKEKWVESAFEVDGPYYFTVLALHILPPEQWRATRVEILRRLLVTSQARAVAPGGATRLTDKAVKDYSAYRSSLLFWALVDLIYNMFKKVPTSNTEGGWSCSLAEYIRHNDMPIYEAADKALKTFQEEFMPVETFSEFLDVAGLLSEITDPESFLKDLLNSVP

What follows are molecules tested against TurboID-TRIM52 fusion (human) (UniProt Q96A61) (assay: proximity labelling; TurboID-TRIM52 against TurboID-EGFP control in RKO cells, Dox-induced; with 10 µM epoxomicin (Fig. 2a-b) or without proteasome inhibitor (Fig. 5d-e); 500 µM biotin for 15 min; biotinylated proteins enriched on streptavidin beads under denaturing conditions, nLC-MS/MS).

binding	Molecule
binds	Tyrosyl-DNA Phosphodiesterase 2 (TDP2) (enzyme, UniProt O95551 1-362) MELGSCLEGGREAAEEEGEPEVKKRRLLCVEFASVASCDAAVAQCFLAENDWEMERALNSYFEPPVEESALERRPETISEPKTYVDLTNEETTDSTTSKISPSEDTQQENGSMFSLITWNIDGLDLNNLSERARGVCSYLALYSPDVIFLQEVIPPYYSYLKKRSSNYEIITGHEEGYFTAIMLKKSRVKLKSQEIIPFPSTKMMRNLLCVHVNVSGNELCLMTSHLESTRGHAAERMNQLKMVLKKMQEAPESATVIFAGDTNLRDREVTRCGGLPNNIVDVWEFLGKPKHCQYTWDTQMNSNLGITAACKLRFDRIFFRAAAEEGHIIPRSLDLLGLEKLDCGRFPSDHWGLLCNLDIIL
binds	Zinc Finger Protein 451 (ZNF451) (enzyme, UniProt Q9Y4E5 1-1061) MGDPGSEIIESVPPAGPEASESTTDENEDDIQFVSEGPLRPVLEYIDLVSSDDEEPSTSYTDENIKRKDHIDYQKDKVALTLARLARHVEVEKQQKEEKNRAFREKIDFQHAHGLQELEFIRGHSDTEAARLCVDQWLKMPGLKTGTINCGTKSSFRRGGHTWVSGKPILCPIMHCNKEFDNGHLLLGHLKRFDHSPCDPTITLHGPFFSSFACVVCYKKFVTQQQYRDHLFDKEATDDGHNNNLLPQIIQCFACPNCFLLFSRKEECSKHMSGKNHFHQSFKLGDNKGIAHPISFPSFAKKLLISLCKDVPFQVKCVACHKTLRSHMELTAHFRVHCRNAGPVAVAEKSITQVAEKFILRGYCPDCNQVFVDETSTQNHKQNSGHKVRVINSVEESVLLYCHSSEGNKDPSSDLHLLLDQSKFSSLKRTMSIKESSSLECIAIPKKKMNLKDKSHEGVACVQKEKSVVKTWFCECNQRFPSEDAVEKHVFSANTMGYKCVVCGKVCDDSGVIRLHMSRIHGGAHLNNFLFWCRTCKKELTRKDTIMAHVTEFHNGHRYFYEMDEVEGETLPSSSTTLDNLTANKPSSAITVIDHSPANSSPRGKWQCRICEDMFDSQEYVKQHCMSLASHKFHRYSCAHCRKPFHKIETLYRHCQDEHDNEIKIKYFCGLCDLIFNVEEAFLSHYEEHHSIDYVFVSEKTETSIKTEDDFPVIETSNQLTCGCRESYICKVNRKEDYSRCLQIMLDKGKLWFRCSLCSATAQNLTDMNTHIHQVHKEKSDEEEQQYVIKCGTCTKAFHDPESAQQHFHRKHCFLQKPSVAHFGSEKSNLYKFTASASHTERKLKQAINYSKSLDMEKGVENDLSYQNIEEEIVELPDLDYLRTMTHIVFVDFDNWSNFFGHLPGHLNQGTFIWGFQGGNTNWKPPLNCKIYNYLNRIGCFFLHPRCSKRKDAADFAICMHAGRLDEQLPKQIPFTILSGDQGFLELENQFKKTQRPAHILNPHHLEGDMMCALLNSISDTTKECDSDDNMGAKNTSIGEEFISTEDVELEEAIRRSLEEM

Target: TurboID-TRIM52 fusion (human) (UniProt Q96A61)
Assay: as above
Remark: another data set of the same source

binding	Molecule
binds	BIRC6 (endogenous) (from UniProt Q9NR09 1-4857) (enzyme)
binds	HUWE1 (endogenous) (from UniProt Q7Z6Z7 1-4374) (enzyme)
no binding	KCMF1 (endogenous) (from UniProt Q9P0J7 1-381)
no binding	UBR4 (endogenous) (from UniProt Q5T4S7 1-5183) (enzyme)
